Experimental data taken from PubChem BioAssay AID2283179 (EPA ToxCast).
The shares of active, inactive and inconclusive entries below differ from those in the screen. Where the call is inconclusive, the potency comes from a doubtful curve fit. Calls of active or inactive are those of the source. The calls were made as follows: active = hit-call score of the fitted dose curve at least 0.9, where 1 is the maximum; inconclusive = response in the unintended direction; inactive = score below 0.9.

Chains of the proteins cited; added tags and fusions are not shown. Lines headed by an entry give the natural chain unless they say otherwise; changes in a name come on top.
UniProt Q9P0L2: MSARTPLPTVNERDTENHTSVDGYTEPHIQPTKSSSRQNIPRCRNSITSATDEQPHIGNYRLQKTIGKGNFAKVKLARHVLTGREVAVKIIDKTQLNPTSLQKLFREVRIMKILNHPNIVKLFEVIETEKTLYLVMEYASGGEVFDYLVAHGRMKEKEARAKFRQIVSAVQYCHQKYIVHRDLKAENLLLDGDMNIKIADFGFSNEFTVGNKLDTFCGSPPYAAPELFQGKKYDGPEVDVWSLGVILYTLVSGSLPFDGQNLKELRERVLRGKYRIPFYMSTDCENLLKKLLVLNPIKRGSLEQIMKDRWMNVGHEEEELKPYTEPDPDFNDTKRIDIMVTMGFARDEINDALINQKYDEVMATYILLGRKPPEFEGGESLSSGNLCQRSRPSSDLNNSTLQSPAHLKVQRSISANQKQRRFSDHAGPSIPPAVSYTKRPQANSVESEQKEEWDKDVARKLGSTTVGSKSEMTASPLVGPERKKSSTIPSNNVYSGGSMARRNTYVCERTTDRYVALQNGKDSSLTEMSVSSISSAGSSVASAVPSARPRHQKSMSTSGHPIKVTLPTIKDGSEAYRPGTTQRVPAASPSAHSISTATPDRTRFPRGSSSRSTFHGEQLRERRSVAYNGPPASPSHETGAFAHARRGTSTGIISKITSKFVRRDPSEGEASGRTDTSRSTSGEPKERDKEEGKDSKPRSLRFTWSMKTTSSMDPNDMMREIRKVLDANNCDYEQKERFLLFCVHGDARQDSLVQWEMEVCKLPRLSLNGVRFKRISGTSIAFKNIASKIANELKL

target: human Microtubule Affinity Regulating Kinase 1 (MARK1), MARK1 (gene 4139) (UniProt Q9P0L2); assay: NVS_ENZ_hMARK1: NovaScreen (NVS) Enzymatic Assay for human Microtubule Affinity Regulating Kinase 1 (MARK1)
Experimental: NVS_ENZ_hMARK1 is a biochemical, single-readout assay that uses extracted gene-proteins in a cell-free assay. Measurements were taken 1 hour after chemical dosing in a 384-well plate.NVS_ENZ_hMARK1 is one of one assay component(s) measured or calculated from the NVS_ENZ_hMARK1 assay. It is designed to make measurements of enzyme activity, a form of enzyme reporter, as detected with fluorescence intensity signals by Fluorescence and electrophoretic mobility shift technology.Data from the assay component NVS_ENZ_hMARK1 was analyzed into 1 assay endpoint. This assay endpoint, NVS_ENZ_hMARK1, was analyzed in the positive analysis fitting direction relative to DMSO as the negative control and baseline of activity. Using a type of enzyme reporter, loss-of-signal activity can be used to understand changes in the enzymatic activity as they relate to the gene MARK1. Furthermore, this assay endpoint can be referred to as a primary readout, because this assay has produced multiple assay endpoints where this one serves a enzymatic activity function. To generalize the intended target to other relatable targets, this assay endpoint is annotated to the kinase intended target family, where the subfamily is serine/threonine kinase.
Binding assays used specific radioligands (tritiated, iodinated) with non-radioactive competitive displacement ligands in agonist or antagonist protocols (as indicated) and various reference compounds and inhibitors to titrate specific binding to receptors and transporters. Most enzyme assays (CYPs, kinases, phosphatases, proteases, HDACs) used recombinant protein and specific substrates (fluorescence mostly, some colorimetric and radioactive) and inhibitors, followed by a biochemical separation of substrate and product. All assays for the biochemical HTS were initially run in duplicate at a single concentration (10 uM for CYP450 assays and 25 uM for all others). Assay-chemical combinations meeting a pre-defined threshold (e.g., 30% inhibition and other criteria defined below) were then run in singleton concentration-response format with maximum concentration of 20 uM for CYPs and 50 uM for all others. Each assay was run with positive and negative controls, and concurrent controls on every plate. The follow-up (secondary) screen tested active chemical-pairs in concentration series, as well as a few additional assays not tested in the primary screen, some selected negative inactives, and several cases re-run in the concentration series for confirmatory purposes.

Row | SMILES | AC50
1 | COC(=O)N(OC)c1ccccc1COc1ccn(-c2ccc(Cl)cc2)n1 | inconclusive: 25 µM
2 | COc1nc(C)nc(NC(=O)NS(=O)(=O)c2ccccc2CCC(F)(F)F)n1 | inconclusive: 25 µM
3 | CN(C)[C@@H]1C(=O)C(C(N)=O)=C(O)[C@@]2(O)C(=O)C3=C(O)c4c(O)cccc4[C@@](C)(O)[C@H]3[C@H](O)[C@@H]12 | active: 18 µM
4 | CC(C)[C@H](C(=O)O[C@H](C#N)c1cccc(Oc2ccccc2)c1)c1ccc(Cl)cc1 | inconclusive: 25 µM
5 | COC(=O)c1c(C(F)F)nc(C(F)(F)F)c(C2=NCCS2)c1CC(C)C | inconclusive: 25 µM
6 | S=C1NCCN1 | inconclusive: 1.61 µM
